Taken from: PubChem BioAssay AID493246 (Drosophila RNAi Screening Center, 2011)
In all, the deposit lists about 21,000 reagents; shown is a random part of those with a known target gene and a result. In the full data, 429 (2%) are marked active. 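Values are raw and not normalised between plates; calls rest on per-plate z-scores that were not deposited.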 Names joined by + are all predicted targets of the reagent. Not stated in the record: the amount of reagent, the time to read-out.

- Test: 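Genes fly cells need to grow and stay alive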 (primary screen)
- Cell system: Drosophila Kc and S2R+ cells
- Reagent: long dsRNA against Drosophila genes
- Measurement: 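Cell number per well after knock-down, printed as raw plate values; calls were based on per-plate z-scores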
- Reading the numbers: Kc cell number and S2R+ cell number: higher = more cells remaining
- Active means: 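Counted as a hit if cell number falls by a z-score of at least 3 within its plate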

CG31253 + CG31131 [DRSC13839]
- Kc cell number, rep 1: 1.16e6
- Kc cell number, rep 2: 1.50e6
- S2R+ cell number, rep 1: 1.10e6
- S2R+ cell number, rep 2: 1.09e6
- outcome: inactive

CG17298 [DRSC15221]
- Kc cell number, rep 1: 1.47e6
- Kc cell number, rep 2: 1.41e6
- S2R+ cell number, rep 1: 1.07e6
- S2R+ cell number, rep 2: 1.20e6
- outcome: inactive

Nazo [DRSC14343]
- Kc cell number, rep 1: 1.71e6
- Kc cell number, rep 2: 1.88e6
- S2R+ cell number, rep 1: 1.25e6
- S2R+ cell number, rep 2: 1.30e6
- outcome: inactive

Shark [DRSC07680]
- Kc cell number, rep 1: 1.46e6
- Kc cell number, rep 2: 1.47e6
- S2R+ cell number, rep 1: 1.16e6
- S2R+ cell number, rep 2: 1.25e6
- outcome: inactive

CG7519 [DRSC11834]
- Kc cell number, rep 1: 1.59e6
- Kc cell number, rep 2: 1.68e6
- S2R+ cell number, rep 1: 1.37e6
- S2R+ cell number, rep 2: 1.42e6
- outcome: inactive

2 consecutive entries already listed, quoted:
CG17298 [DRSC15221]
- Kc cell number, rep 1: 1.47e6
- Kc cell number, rep 2: 1.41e6
- S2R+ cell number, rep 1: 1.07e6
- S2R+ cell number, rep 2: 1.20e6
- outcome: inactive

Nazo [DRSC14343]
- Kc cell number, rep 1: 1.71e6
- Kc cell number, rep 2: 1.88e6
- S2R+ cell number, rep 1: 1.25e6
- S2R+ cell number, rep 2: 1.30e6
- outcome: inactive

The results go on.
CheA87a [DRSC14839]
- Kc cell number, rep 1: 1.38e6
- Kc cell number, rep 2: 1.37e6
- S2R+ cell number, rep 1: 1.08e6
- S2R+ cell number, rep 2: 1.18e6
- outcome: inactive

Dsor1 [DRSC18462]
- Kc cell number, rep 1: 6.38e5
- S2R+ cell number, rep 1: 8.45e5
- outcome: inactive

Dhdds [DRSC17756]
- Kc cell number, rep 1: 1.47e6
- Kc cell number, rep 2: 1.51e6
- S2R+ cell number, rep 1: 1.03e6
- S2R+ cell number, rep 2: 1.14e6
- outcome: inactive

CG15429 [DRSC00444]
- Kc cell number, rep 1: 1.57e6
- Kc cell number, rep 2: 1.58e6
- S2R+ cell number, rep 1: 1.21e6
- S2R+ cell number, rep 2: 1.38e6
- outcome: inactive

5-HT2B [DRSC16360]
- Kc cell number, rep 1: 1.44e6
- Kc cell number, rep 2: 1.57e6
- S2R+ cell number, rep 1: 1.28e6
- S2R+ cell number, rep 2: 1.43e6
- outcome: inactive

5-HT2B [DRSC16362]
- Kc cell number, rep 1: 1.54e6
- Kc cell number, rep 2: 1.70e6
- S2R+ cell number, rep 1: 1.31e6
- S2R+ cell number, rep 2: 1.45e6
- outcome: inactive

CG8152 [DRSC07083]
- Kc cell number, rep 1: 1.62e6
- Kc cell number, rep 2: 1.67e6
- S2R+ cell number, rep 1: 1.41e6
- S2R+ cell number, rep 2: 1.52e6
- outcome: inactive
